In doi:10.1101/2021.12.08.471779:
Where a chain is given by its changes, count along the chain named. No constants are given. Whether binding was seen depends on the method and setting. Binding seen in cells or lysates may run through a third protein. Some results given as binding are weak or reduced against the parent protein; the word gives no strength.

Protein sequences, listed by entry. Tags and fused reporters are not part of them. Lines headed by an entry give the natural chain unless they say otherwise; changes in a name come on top.
UniProt P02929, whole entry, looked up, stated change not applied: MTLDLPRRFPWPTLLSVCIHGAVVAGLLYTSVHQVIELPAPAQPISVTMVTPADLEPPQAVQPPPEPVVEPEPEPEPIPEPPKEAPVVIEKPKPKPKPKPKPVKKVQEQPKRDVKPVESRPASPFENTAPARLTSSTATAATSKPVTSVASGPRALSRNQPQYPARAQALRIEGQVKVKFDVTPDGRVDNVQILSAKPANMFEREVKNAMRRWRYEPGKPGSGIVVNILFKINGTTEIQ

Assays:
Assay in all cases: cross-linking
[1] = molecular target: T1, FepA R75C (Escherichia coli K-12) (UniProt P05825)
T1 sequence: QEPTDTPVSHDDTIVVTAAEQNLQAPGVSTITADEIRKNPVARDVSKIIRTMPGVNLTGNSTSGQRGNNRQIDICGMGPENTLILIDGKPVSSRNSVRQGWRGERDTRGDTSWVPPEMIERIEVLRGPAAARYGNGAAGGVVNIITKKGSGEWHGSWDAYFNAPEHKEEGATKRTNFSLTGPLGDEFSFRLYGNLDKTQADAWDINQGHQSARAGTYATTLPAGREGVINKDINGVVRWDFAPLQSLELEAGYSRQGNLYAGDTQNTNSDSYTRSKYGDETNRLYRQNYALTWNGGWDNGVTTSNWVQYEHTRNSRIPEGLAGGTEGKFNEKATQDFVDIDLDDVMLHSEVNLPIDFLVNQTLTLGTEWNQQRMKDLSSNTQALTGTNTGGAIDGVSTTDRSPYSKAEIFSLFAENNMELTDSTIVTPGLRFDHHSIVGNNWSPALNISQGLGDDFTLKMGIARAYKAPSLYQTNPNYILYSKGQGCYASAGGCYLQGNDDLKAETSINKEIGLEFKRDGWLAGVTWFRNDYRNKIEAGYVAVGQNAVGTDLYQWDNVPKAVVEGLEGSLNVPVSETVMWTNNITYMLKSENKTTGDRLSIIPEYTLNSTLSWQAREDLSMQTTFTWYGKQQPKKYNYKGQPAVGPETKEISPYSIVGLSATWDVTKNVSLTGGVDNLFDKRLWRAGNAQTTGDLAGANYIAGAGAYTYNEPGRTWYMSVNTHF

[2] = molecular target: T2, FepA E511C (Escherichia coli K-12) (UniProt P05825)
T2 sequence: T1 sequence with C75R, E511C

[3] = molecular target: T3, FepA S46C (Escherichia coli K-12) (UniProt P05825)
T3 sequence: T1 sequence with S46C, C75R

Row | Substance | binding [1] | binding [2] | binding [3]
1 | TonB C18G R214C (from UniProt P02929 1-239) | no binding | no binding | no binding
2 | TonB C18G V206C (from UniProt P02929 1-239) | no binding | no binding | no binding
3 | TonB C18G M201C (from UniProt P02929 1-239) | no binding | no binding | no binding
4 | TonB C18G R204C (from UniProt P02929 1-239) | no binding | no binding | no binding
5 | TonB C18G H20A Q160C (from UniProt P02929 1-239) | – | – | no binding

Next, values leading:

Row | binding [1] | binding [2] | binding [3] | Substance
6 | no binding | no binding | binds | TonB C18G Q160C (from UniProt P02929 1-239)
7 | no binding | no binding | no binding | TonB C18G A209C (from UniProt P02929 1-239)
8 | no binding | no binding | no binding | TonB C18G R212C (from UniProt P02929 1-239)
9 | no binding | no binding | no binding | TonB C18G N208C (from UniProt P02929 1-239)
